Experimental data reported in PubChem BioAssay AID504444 (National Center for Advancing Translational Sciences (NCATS), 2011).
Screen size: about 360,000 compounds; about 7,500 (2.1%) were called active. Inconclusive means that the source gave no clear call. Such entries were picked first, then a sample of the others. Calls follow the shape of the dose curve; as a rule, active = well fitted inhibition curve with a large enough effect; inconclusive = small, poorly fitted or top-dose-only effect, or effect the other way; inactive = flat fitted curve, though single readings scatter. Potencies of inconclusive entries are doubtful fits and often do not repeat.

test: Nrf2 qHTS screen for inhibitors; conditions: A549 ARE-Fluc reporter, luciferase luminescence, 18-24 h; activity change, negative = inhibition: at 46 µM (top of the series); also: nearly all actives have a fitted effect of over 60% in size
Outline: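 Quantitative HTS in A549 cells stably bearing an antioxidant response element-firefly luciferase construct. Inhibition of Nrf2-driven transcription was scored by luminescence after 18-24 h of compound exposure at 37 °C.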
% is scaled to controls: 0 for no effect and ±100 for the full control effect; potency is read from the fitted curve at half-maximal effect.

With `Cc1c(OCC(=O)NCc2cccnc2)ccc2c3c(c(=O)oc12)CCCC3` as the molecule, how does the Potency read?
The Potency was inconclusive: 1.3 µM [falling, full curve, poor fit].

For `O=C(Nc1ccc2nc(-c3ccccc3)[nH]c2c1)c1cccs1`, which Potency is on record?
The Potency was inconclusive: 11.6 µM [falling, partial curve].

With `CC1(C)Cc2nc3oc4c(NCc5ccccc5)ncnc4c3cc2CO1` as the molecule, how does the “activity change, negative = inhibition” value read?
The value was inactive: 3.31%.

Which “activity change, negative = inhibition” value does the source give for `O=C(CSCc1c(Cl)cccc1Cl)Nc1ccc2c(c1)OCCO2` here?
The value was inactive: 15.1%.

Which Potency does the source give for `O=C(COc1ccc(Cl)cc1)Nc1ccc(N2CCN(C(=O)c3ccco3)CC2)cc1` here?
Its Potency is active: 23.1 µM.

Which Potency does the source give for `OC(c1ccccc1)(c1ccc(F)cc1)C(c1ccccc1)N1CCOCC1` (stereo not drawn) here?
Its Potency is inconclusive: 25.9 µM [falling, single point].

Which “activity change, negative = inhibition” value does the source give for `Cc1ccccc1-c1nnc(-c2cccs2)o1` here?
The value was inactive: 98.9%.

With `CN1C(=O)C2(c3ccccc31)N(c1ccc(Br)cc1)C(=O)CS2(=O)=O` (stereo not drawn) as the molecule, how does the Potency read?
The Potency was inconclusive: 18.4 µM [activator, single point].

For `COc1ccc(C(=O)NC(=S)Nc2ccccc2N2CCOCC2)cc1[N+](=O)[O-]`, which “activity change, negative = inhibition” value is on record?
Its value is inactive: 9.24%.

For `COc1ccc2c(c1)-c1nc(NC(=O)c3cc(OC)c(OC)c(OC)c3)sc1CC2`, which Potency is on record?
Its Potency is inconclusive: 16.4 µM [falling, single point].

With `CCOc1cc(/C=C2\CN(CC)C/C(=C\c3ccc(O)c(OCC)c3)C2=O)ccc1O` as the molecule, how does the Potency read?
Its Potency is inconclusive: 29.1 µM [falling, single point].

Which Potency does the source give for `CCCCNc1c(-c2ccc(-c3ccc(C(C)=O)cc3)c(OC)c2)nc2cc(C)ccn12` here?
The Potency was inconclusive: 18.4 µM [falling, single point].

With `CC(=O)N1c2ccc(S(=O)(=O)N3CCC(C(=O)Nc4cccc(C)c4C)CC3)cc2CC1C` (stereo not drawn) as the molecule, how does the “activity change, negative = inhibition” value read?
Its value is inactive: -31%.

With `O=C(CP(=O)(c1ccccc1)c1ccccc1)Nc1nc2ccc(Cl)cc2s1` as the molecule, how does the Potency read?
The Potency was inconclusive: 20.6 µM [falling, partial curve, poor fit].

For `O=C(C1CCC(Cn2c(=O)c3sccc3n(Cc3ccc(F)cc3)c2=O)CC1)N1CCOCC1` (stereo not drawn), which Potency is on record?
The Potency was inconclusive: 29.1 µM [falling, single point].

With `COc1ccc(NC(=O)c2ccc(CN(c3cc(Cl)ccc3C)S(=O)(=O)c3ccccc3)cc2)cc1OC` as the molecule, how does the Potency read?
The Potency was inconclusive: 4.11 µM [falling, full curve, poor fit].

Which Potency does the source give for `CCCCOc1ccc(S(=O)(=O)NNC(=O)C2Cc3c(ccc4ccccc34)O2)cc1` (stereo not drawn) here?
Its Potency is inconclusive: 23.1 µM [falling, single point].

Which Potency does the source give for `CC1CCc2nc(NC(=O)CN3CCN(c4ccc(F)cc4)CC3)sc2C1` (stereo not drawn) here?
Its Potency is inconclusive: 29.1 µM [falling, single point].
